Experimental data: PMC9457610, “Synthesis of thia-Michael-Type Adducts between Naphthoquinones and N-Acetyl-L-Cysteine and Their Biological Activity” (Molecules, 2022)

Test: Reaction with GSH, DI-MS analysis
Details: 3 mM compound + 3 mM GSH in PBS, pH 7.4 or 4.0, overnight at 37 °C
Protocol: To this end, 8, 9, and 11 were incubated with GSH in 0.1 mL phosphate-buffered saline (PBS) overnight; then, these solutions underwent direct-infusion mass spectrometric analyses (DI-MS).
The standard reaction mixture consisted of 3 mM 8, 9, and 11 in 0.1 mL PBS, pH 7.4 or 4.0; the reaction was started with the addition of 3 mM GSH, overnight at 37 ° C. Reaction mixtures, diluted at 1:100 in methanol, were analyzed in direct-infusion mode and negative polarity with an AB Sciex QTrap 4500 (Concord, ON, Canada) mass spectrometer. The experimental conditions were as follows: ion spray voltage—4500 kV; temperature—100 °C; curtain gas (nitrogen) pressure—30 PSI; declustering potential—60 V; entrance potential—10 V. Mass spectra were acquired with Analyst 1.6.3 software (AB Sciex, Concord, ON, Canada).

SMILES	reactivity with glutathione (adduct formation, DI-MS)
CC(=O)N[C@@H](CSC1=C(C)C(=O)c2ccccc2C1=O)C(=O)O [Compound 9, N-acetyl-S-(3-methyl-1,4-dioxo-1,4-dihydronaphthalen-2-yl)-L-cysteine]	did not seem to react with GSH
CC(=O)N[C@@H](CSC1=CC(=O)c2c(O)cccc2C1=O)C(=O)O [Compound 11, N-acetyl-S-(5-hydroxy-1,4-dioxo-1,4-dihydronaphthalen-2-yl)-L-cysteine]	reacted with GSH
CC(=O)N[C@@H](CSC1=CC(=O)c2ccccc2C1=O)C(=O)O [Compound 8, N-acetyl-S-(1,4-dioxo-1,4-dihydronaphthalen-2-yl)-L-cysteine]	reacted with GSH
